The record followed here is article PMC8670255.

Amino acid sequences for entries named in this document (tags omitted). Residues count along the entry.
UniProt P05362, residues 28-532: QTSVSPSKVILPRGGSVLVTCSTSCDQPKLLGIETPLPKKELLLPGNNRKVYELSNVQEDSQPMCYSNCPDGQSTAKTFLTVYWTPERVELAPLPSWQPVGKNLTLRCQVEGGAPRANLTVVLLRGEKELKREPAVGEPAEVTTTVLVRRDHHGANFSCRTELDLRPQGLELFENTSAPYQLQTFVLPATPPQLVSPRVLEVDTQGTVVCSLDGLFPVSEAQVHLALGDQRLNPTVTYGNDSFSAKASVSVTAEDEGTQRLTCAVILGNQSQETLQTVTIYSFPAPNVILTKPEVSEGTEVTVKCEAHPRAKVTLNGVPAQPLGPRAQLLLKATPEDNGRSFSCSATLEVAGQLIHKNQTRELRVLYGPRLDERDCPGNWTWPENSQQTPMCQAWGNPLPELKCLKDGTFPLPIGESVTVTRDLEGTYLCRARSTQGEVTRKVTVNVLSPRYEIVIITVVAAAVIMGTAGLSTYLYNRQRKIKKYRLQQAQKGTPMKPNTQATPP

Results are given in words; binding and its absence hold for the method and conditions named. In cells and extracts the contact can be indirect. Some results given as binding are weak or reduced against the parent protein; the word gives no strength.

The target in test [1] is neuraminidase-1 (NEU1), endogenous in HUVEC (human (endogenous in HUVEC)) (UniProt Q99519). Description: co-IP; whole lysates of PMA-pre-stimulated HUVEC (100 nM, overnight), cells stimulated or not with κE (50 µg/mL, 1 h); same protocol as for THP-1; immunoprecipitation with mouse monoclonal anti-ICAM-1 or anti-NEU1 antibody, Western blot of the partner.
Test [2] concerns the target intercellular cell adhesion molecule-1 (ICAM-1), endogenous in HUVEC (human (endogenous in HUVEC)) (UniProt P05362). Described as above.

For “intercellular cell adhesion molecule-1 (ICAM-1), endogenous in HUVEC (from UniProt P05362 28-532) (receptor)”, in test [1], the binding result is “binds”.

As to “neuraminidase-1 (NEU1), endogenous in HUVEC (from UniProt Q99519 48-415) (enzyme)”, the binding entry in test [2] is recorded as “binds”.
